According to PubChem BioAssay AID504834 (National Center for Advancing Translational Sciences (NCATS), 2011):
Among all 320,000 compounds or so, about 22,000 (6.9%) were called active. The inconclusive results got no clear call from the source; some entries with a clear call stand among them for comparison. Calls follow the shape of the dose curve; as a rule, active = well fitted inhibition curve with a large enough effect; inconclusive = small, poorly fitted or top-dose-only effect, or another doubt; inactive = no such curve, though single readings can be large or run the other way. Where the call is inconclusive, the potency comes from a doubtful curve fit.

Assay: Primary qHTS for delayed death inhibitors of the malarial parasite plastid, 96 hour incubation
Conditions: P. falciparum luciferase reporter growth; series mostly up to 28.7 µM; activity change, negative = inhibition: at the top concentration
Method in brief: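 Delayed-death screen, second-generation endpoint: infected erythrocytes, 2% hematocrit, 0.05% parasitemia final; 96 hours at 37 C, 5% CO2; luciferase detection reagent; luminescence decrease equals reduced growth.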
% is scaled to controls: 0 for no effect and ±100 for the full control effect; potency is read from the fitted curve at half-maximal effect.

Compound	Potency	activity change, negative = inhibition
Cc1ccc(-c2csc(NC(=O)c3ccc(-c4ccccc4)cc3)n2)o1	inconclusive: 16.5 µM [inhibitor, partial curve, poor fit]	–
CC(=O)Nc1nnc(COc2ccc(Cl)cc2)s1	–	inactive: 11.5%
Cc1nc2c(Br)cc(Br)cc2cc1O	inconclusive: 11.7 µM [inhibitor, partial curve]	–
COC(=O)c1ccc2c(=O)n(CCN3CCOCC3)c(SCC(=O)Nc3ccccc3Cl)nc2c1	–	inactive: -16.7%
NC(=O)C1CCN(C(=O)CCNS(=O)(=O)c2ccccc2F)CC1	–	inactive: -18.1%
CCCNC(=O)C1CCN(c2ccc(S(=O)(=O)N3CCOCC3)cc2Cl)CC1	inconclusive: 2.62 µM [inhibitor, single point]	–
CN(C)CCCN(C(=O)c1ccc(C(=O)c2ccccc2)cc1)c1nc2c(F)cccc2s1	–	inactive: -8.29%
CN1CCN(c2nccc3c2ncn3C)CC1	–	inactive: 47.2%
CCOc1ccccc1OCc1nn2c(COc3ccccc3)nnc2s1	inconclusive: 13.1 µM [inhibitor, partial curve]	–
O=C(/C=C/c1ccccc1)Oc1cccc2cccnc12	active: 3.7 µM	–
CCS(=O)(=O)Nc1ccc(C2=NN(S(=O)(=O)CC)C(c3cccs3)C2)cc1 (stereo unspecified)	inconclusive: 18.5 µM [inhibitor, single point]	–
CCOC(=O)Cc1csc(NC(=O)CSc2ncnc3c2cnn3-c2ccc(OC)cc2)n1	inconclusive: 4.65 µM [inhibitor, partial curve, poor fit]	–
Cc1cc(=O)n(-c2ccccc2)n1C	–	inactive: 30.9%
O=C1CCN(Cc2ccc(Br)cc2)CCN1[C@H](CO)Cc1ccccc1	–	inactive: -23.4%
COc1ccc(OC)c(S(=O)(=O)n2ccnc2C(C)C)c1	–	inactive: -0.165%
O=C(Nc1ccc(Cl)c(Cl)c1)Oc1ccc(NC(=O)c2ccco2)cc1	inconclusive: 18.5 µM [inhibitor, single point]	–
CCCOC(=O)C1=C(C)NC(=O)NC1c1cccc2ccccc12 (stereo unspecified)	inconclusive: 11.7 µM [inhibitor, partial curve, poor fit]	–
C=CCn1c(O)c(N=NC(=S)Nc2ccccc2C)c2cc(S(=O)(=O)N3CCOCC3)ccc21	active: 13.1 µM	–
CCOc1ccc(CCNC(=O)c2cccc(NC3=NC4CS(=O)(=O)CC4S3)c2)cc1OCC (stereo unspecified)	inconclusive: 18.5 µM [inhibitor, single point]	–
Cc1ccc(F)c([C@H]2[C@@H]3C=CCC[C@@]3(C)C(=O)N2Cc2ccccc2)c1	inconclusive: 11.7 µM [inhibitor, single point]	–
COc1ccc(CN2C(=O)c3cccnc3C2=O)cc1S(=O)(=O)N1CCOc2ccc(Cl)cc21	inconclusive: 10.4 µM [inhibitor, partial curve]	–

Fetched by structure from the list above:
Compound	Potency	activity change, negative = inhibition
CC(=O)Nc1nnc(COc2ccc(Cl)cc2)s1	–	inactive: 11.5%
CN(C)CCCN(C(=O)c1ccc(C(=O)c2ccccc2)cc1)c1nc2c(F)cccc2s1	–	inactive: -8.29%
